Library screen at single concentrations

By UniProt entry, the sequences of proteins in these tests, tags left out. Residues count along the entry.
UniProt P9WPC5, whole entry: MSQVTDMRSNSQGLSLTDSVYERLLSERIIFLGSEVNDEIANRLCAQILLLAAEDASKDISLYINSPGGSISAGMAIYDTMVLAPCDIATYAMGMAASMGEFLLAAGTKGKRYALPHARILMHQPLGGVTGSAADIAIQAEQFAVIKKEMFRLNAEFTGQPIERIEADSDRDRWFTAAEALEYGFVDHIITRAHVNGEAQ
UniProt P9WPC3, whole entry partner: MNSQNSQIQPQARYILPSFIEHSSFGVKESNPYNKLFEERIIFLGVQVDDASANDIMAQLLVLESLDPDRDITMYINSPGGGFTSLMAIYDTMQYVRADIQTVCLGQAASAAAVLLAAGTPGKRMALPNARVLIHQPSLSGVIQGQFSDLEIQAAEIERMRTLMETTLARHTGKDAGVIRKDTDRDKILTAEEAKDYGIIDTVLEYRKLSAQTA
UniProt P9WNZ1, whole entry: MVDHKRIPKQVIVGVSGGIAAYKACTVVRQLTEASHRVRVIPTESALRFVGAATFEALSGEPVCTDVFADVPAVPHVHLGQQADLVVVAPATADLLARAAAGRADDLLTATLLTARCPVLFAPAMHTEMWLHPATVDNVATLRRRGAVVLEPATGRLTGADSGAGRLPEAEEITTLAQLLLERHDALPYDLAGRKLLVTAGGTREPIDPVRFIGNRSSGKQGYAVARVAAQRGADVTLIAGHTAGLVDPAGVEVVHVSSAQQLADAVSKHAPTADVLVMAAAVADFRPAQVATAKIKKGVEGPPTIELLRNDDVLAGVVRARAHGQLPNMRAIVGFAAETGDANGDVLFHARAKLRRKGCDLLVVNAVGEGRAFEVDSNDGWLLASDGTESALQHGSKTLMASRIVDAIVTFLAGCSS
UniProt Q8IDJ8, 1-583: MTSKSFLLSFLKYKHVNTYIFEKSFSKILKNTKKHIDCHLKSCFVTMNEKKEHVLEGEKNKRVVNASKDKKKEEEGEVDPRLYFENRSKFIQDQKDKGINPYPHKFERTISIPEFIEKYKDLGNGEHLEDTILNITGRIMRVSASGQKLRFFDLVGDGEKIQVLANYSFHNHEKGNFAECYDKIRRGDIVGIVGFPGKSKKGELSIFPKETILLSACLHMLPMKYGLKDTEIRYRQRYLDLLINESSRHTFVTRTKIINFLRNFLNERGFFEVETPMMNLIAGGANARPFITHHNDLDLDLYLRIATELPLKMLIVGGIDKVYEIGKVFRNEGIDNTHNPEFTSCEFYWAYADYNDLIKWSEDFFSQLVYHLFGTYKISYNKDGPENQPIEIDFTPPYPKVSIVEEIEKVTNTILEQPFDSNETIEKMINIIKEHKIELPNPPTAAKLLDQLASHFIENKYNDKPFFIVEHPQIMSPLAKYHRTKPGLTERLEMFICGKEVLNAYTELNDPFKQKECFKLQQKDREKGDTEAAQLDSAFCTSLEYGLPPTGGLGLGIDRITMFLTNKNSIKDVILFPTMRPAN
UniProt Q4DA54, 1-478: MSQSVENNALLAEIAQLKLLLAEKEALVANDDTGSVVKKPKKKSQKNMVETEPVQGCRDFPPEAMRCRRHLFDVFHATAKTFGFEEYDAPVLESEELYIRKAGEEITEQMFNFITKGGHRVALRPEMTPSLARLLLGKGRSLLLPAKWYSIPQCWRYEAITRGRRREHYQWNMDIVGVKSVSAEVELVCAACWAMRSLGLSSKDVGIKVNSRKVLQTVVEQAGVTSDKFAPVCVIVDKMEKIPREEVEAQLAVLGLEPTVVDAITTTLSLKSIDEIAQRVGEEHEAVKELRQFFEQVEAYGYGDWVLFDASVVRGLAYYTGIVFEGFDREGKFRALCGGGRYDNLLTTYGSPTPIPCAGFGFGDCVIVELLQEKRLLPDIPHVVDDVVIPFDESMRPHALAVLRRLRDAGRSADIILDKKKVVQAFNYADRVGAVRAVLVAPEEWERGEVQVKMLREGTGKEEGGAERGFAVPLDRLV
UniProt I6X8D2, whole entry: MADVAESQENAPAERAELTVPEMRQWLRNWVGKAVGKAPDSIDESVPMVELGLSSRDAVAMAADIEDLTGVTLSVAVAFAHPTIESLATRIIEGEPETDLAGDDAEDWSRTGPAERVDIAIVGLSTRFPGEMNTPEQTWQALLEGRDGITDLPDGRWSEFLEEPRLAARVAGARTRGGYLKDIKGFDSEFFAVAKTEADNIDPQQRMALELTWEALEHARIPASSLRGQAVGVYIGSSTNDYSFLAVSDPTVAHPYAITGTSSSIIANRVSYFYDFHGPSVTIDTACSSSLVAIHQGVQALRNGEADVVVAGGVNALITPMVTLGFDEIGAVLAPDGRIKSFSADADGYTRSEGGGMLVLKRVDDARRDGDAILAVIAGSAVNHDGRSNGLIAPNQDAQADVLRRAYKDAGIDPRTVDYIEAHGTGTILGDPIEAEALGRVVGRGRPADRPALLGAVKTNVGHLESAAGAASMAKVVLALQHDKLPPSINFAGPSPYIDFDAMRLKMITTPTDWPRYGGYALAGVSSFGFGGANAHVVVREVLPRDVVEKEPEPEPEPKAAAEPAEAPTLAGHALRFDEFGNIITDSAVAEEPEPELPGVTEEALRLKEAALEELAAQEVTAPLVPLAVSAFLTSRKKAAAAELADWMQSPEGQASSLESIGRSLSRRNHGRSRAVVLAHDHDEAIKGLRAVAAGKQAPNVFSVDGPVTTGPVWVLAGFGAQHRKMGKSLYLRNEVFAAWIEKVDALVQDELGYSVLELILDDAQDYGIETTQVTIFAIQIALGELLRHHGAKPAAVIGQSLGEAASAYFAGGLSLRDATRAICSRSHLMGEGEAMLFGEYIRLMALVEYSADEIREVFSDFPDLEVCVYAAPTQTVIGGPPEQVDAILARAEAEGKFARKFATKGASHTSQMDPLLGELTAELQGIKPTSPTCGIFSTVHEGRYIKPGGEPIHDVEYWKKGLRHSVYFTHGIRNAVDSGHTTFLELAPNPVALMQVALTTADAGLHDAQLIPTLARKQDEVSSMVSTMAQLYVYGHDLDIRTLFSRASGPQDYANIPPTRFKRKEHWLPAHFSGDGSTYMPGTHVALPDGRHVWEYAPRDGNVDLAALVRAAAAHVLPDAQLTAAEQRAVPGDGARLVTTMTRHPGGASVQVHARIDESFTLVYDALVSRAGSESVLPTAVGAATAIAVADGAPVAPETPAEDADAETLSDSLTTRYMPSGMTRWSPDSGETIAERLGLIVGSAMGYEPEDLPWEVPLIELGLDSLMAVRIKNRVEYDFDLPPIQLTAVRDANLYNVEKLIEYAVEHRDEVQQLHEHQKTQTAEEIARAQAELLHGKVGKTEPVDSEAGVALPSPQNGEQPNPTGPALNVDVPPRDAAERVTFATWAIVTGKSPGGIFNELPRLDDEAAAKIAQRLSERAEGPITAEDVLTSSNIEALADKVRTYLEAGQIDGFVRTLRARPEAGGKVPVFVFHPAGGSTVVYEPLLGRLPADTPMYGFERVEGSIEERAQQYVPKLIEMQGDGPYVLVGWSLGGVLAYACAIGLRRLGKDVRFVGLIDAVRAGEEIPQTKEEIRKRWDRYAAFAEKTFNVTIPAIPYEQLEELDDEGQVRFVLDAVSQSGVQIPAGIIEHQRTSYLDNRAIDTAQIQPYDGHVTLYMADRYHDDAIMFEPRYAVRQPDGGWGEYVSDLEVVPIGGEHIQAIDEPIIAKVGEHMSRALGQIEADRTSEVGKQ

ClpP1P2: 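ClpP1P2, Mycobacterium tuberculosis (UniProt P9WPC5 and UniProt P9WPC3). Protease assay of ClpP1P2, read by the AMC dye that it sets free. Concentration: 50 µM. Higher reads as stronger inhibition, judged from the few compounds that gave an IC50. Most other retested compounds had strongly negative values. About 69,000 compounds were tested under these conditions; 0.015% (about 10) showed 50% or more at least once.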
CoaBC: 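Enzyme assay of CoaBC with a phosphate dye (Biomol Green) read at 650 nm. Target: Coenzyme A biosynthesis protein CoaBC, Mycobacterium tuberculosis (UniProt P9WNZ1). Compounds at 30 µM. Direction is inferred from only a few compounds that gave an IC50; most scored high, so higher reads as stronger inhibition. Most strong results did not repeat in a second test. Size under these conditions: about 67,000 compounds, about 40 of them at 50% or above in at least one test.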
PfKRS1: 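Enzyme assay of the cytosolic lysyl-tRNA synthetase in 384-well plates, read by luminescence. Target: Lysine-tRNA ligase, Plasmodium falciparum 3D7 (UniProt Q8IDJ8). Tested at 30 µM. Direction is inferred from only a few compounds that gave an IC50; most scored high, so higher reads as stronger inhibition. Size under these conditions: about 69,000 compounds, about 49 of them at 50% or above in at least one test.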
TcHisRS: 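Histidine-tRNA ligase, Trypanosoma cruzi CL Brener (UniProt Q4DA54). Enzyme assay of histidyl-tRNA synthetase; the read-out is not stated. Compounds at 30 µM. The record gives no direction; compounds that gave an IC50 in retests scored well above the rest, so higher reads as stronger inhibition. Of about 69,000 compounds tested this way, about 31 (0.045%) reached 50% or more in at least one test.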
Pks13 thioesterase: 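Polyketide synthase Pks13, Mycobacterium tuberculosis (UniProt I6X8D2). Enzyme assay of the thioesterase domain of polyketide synthase 13; the read-out is not stated. Compounds at 30 µM. The record gives no direction; the compounds picked for IC50 retests had high values, so higher reads as stronger inhibition. About 67,000 compounds were tested under these conditions; 0.46% (about 300) showed 50% or more at least once.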

Values are the deposited “Percent Effect”, in %.
The controls that fix the scale are not given in the record; negative values are as filed.
This is an unselected part of the compounds tested.

{"compound": "Cc1ccc(CN2C[C@@H](OCc3csc(C)n3)[C@H]3COC[C@H]32)s1", "ClpP1P2": -12.16, "CoaBC": 1.85, "PfKRS1": 2.963, "TcHisRS": 7.018, "Pks13 thioesterase": 6.063}
{"compound": "c1ccc(N2CCN(Cc3cnc(C4CCCCO4)nc3)CC2)nc1", "stereo": "configuration not stated", "ClpP1P2": -11.86, "CoaBC": 3.263, "PfKRS1": 0.1068, "TcHisRS": 2.632, "Pks13 thioesterase": 12.22}
{"compound": "COCC(=O)N1CC[C@@H](N2CCN(C)CC2)[C@@H]1Cc1ccccc1", "ClpP1P2": -6.037, "CoaBC": 0.8403, "PfKRS1": -1.808, "TcHisRS": 4.132, "Pks13 thioesterase": -8.424}
{"compound": "CCCn1ncc(CN2C[C@@H]3CCCN3C[C@H]2Cc2ccccc2)c1C", "ClpP1P2": -6.528, "CoaBC": 0.9685, "PfKRS1": 1.748, "TcHisRS": 7.778, "Pks13 thioesterase": 5.301}
{"compound": "CCn1ccnc1CN1CCCN(C(=O)Cc2ccccc2C)CC1", "ClpP1P2": -18.14, "CoaBC": -0.5362, "PfKRS1": -0.5225, "TcHisRS": 2.564, "Pks13 thioesterase": -6.567}
{"compound": "CC(C)n1ccnc1C1CCCN(c2ccccn2)C1", "stereo": "configuration not stated", "ClpP1P2": -4.788, "CoaBC": -9.375, "PfKRS1": 2.113, "TcHisRS": 7.884, "Pks13 thioesterase": -5.559}
{"compound": "COc1ccc2nnc(C(=O)NCC3CCCC3)nc2c1", "ClpP1P2": 21.76, "CoaBC": 0.4474, "PfKRS1": 4.642, "TcHisRS": 10.31, "Pks13 thioesterase": -10.15}
{"compound": "C[C@@H](NC(=O)c1cccn1C)c1c(-c2ccc(Cl)cc2)noc1C(=O)O", "ClpP1P2": -6.686, "CoaBC": -3.386, "PfKRS1": 9.43, "TcHisRS": 3.96, "Pks13 thioesterase": -24.06}
{"compound": "CC(C)NC(=O)N1Cc2nccn2CC(CN2CCCC2)C1", "stereo": "configuration not stated", "ClpP1P2": -6.51, "CoaBC": 1.015, "PfKRS1": -5.736, "TcHisRS": 7.882, "Pks13 thioesterase": -12.24}
{"compound": "Cn1cnc2c1CCN(Cc1nc(Cc3ccccc3)no1)C2", "ClpP1P2": -7.391, "CoaBC": 7.513, "PfKRS1": 1.293, "TcHisRS": 0, "Pks13 thioesterase": -7.37}
{"compound": "Cc1ccc(S(=O)(=O)Nc2ccc(-n3ccnc3C)nc2)cc1N(C)C", "ClpP1P2": -11.03, "CoaBC": -4.369, "PfKRS1": 3.599, "TcHisRS": 10.5, "Pks13 thioesterase": -30.86}
{"compound": "CCN(CC1CCOCC1)C(=O)Cn1ccccc1=O", "ClpP1P2": -9.493, "CoaBC": -9.274, "PfKRS1": 0.3399, "TcHisRS": 6.145, "Pks13 thioesterase": -30.26}
{"compound": "CC(Nc1c(F)cc(C#N)cc1F)c1cccc(S(N)(=O)=O)c1", "stereo": "configuration not stated", "ClpP1P2": 3.041, "CoaBC": -2.479, "PfKRS1": 2.768, "TcHisRS": 6.667, "Pks13 thioesterase": -4.169}
{"compound": "CC(C)Nc1nc2c(s1)C(=O)CN(C)C2", "ClpP1P2": -8.364, "CoaBC": -0.6024, "PfKRS1": 1.065, "TcHisRS": -3.39, "Pks13 thioesterase": 19.42}
{"compound": "c1cnc(N2CC3(CCN(CC4CCOC4)CC3)c3ccccc32)nc1", "stereo": "configuration not stated", "ClpP1P2": -8.328, "PfKRS1": 0.9233, "TcHisRS": 11.04, "Pks13 thioesterase": 6.275}
{"compound": "Cn1cc(C2(C)CN(C(=O)Nc3ccccc3F)CCO2)cn1", "stereo": "configuration not stated", "ClpP1P2": -1.422, "CoaBC": -3.913, "PfKRS1": 1.368, "TcHisRS": 2.674, "Pks13 thioesterase": -34.87}
{"compound": "CN1C(=O)CCCC12CCCN(C(=O)c1cc(F)cc(F)c1)C2", "stereo": "configuration not stated", "ClpP1P2": 3.989, "CoaBC": 0.7059, "PfKRS1": 2.419, "TcHisRS": 1.442, "Pks13 thioesterase": -28.19}

The last 2 entries again:

{"compound": "Cn1cc(C2(C)CN(C(=O)Nc3ccccc3F)CCO2)cn1", "stereo": "configuration not stated", "ClpP1P2": -1.422, "CoaBC": -3.913, "PfKRS1": 1.368, "TcHisRS": 2.674, "Pks13 thioesterase": -34.87}
{"compound": "CN1C(=O)CCCC12CCCN(C(=O)c1cc(F)cc(F)c1)C2", "stereo": "configuration not stated", "ClpP1P2": 3.989, "CoaBC": 0.7059, "PfKRS1": 2.419, "TcHisRS": 1.442, "Pks13 thioesterase": -28.19}

Measurements from “University of Dundee, Small-Polar-MMV Screening Library” (2021), ChEMBL document CHEMBL3988442.